Data: the supplement of paper PMC11006884
This is a selection; strong and weak results do not stand in their true shares.

The chains behind the UniProt entries cited, without tags or fusion partners. Where a name states a change or a piece, a line headed by the entry shows the natural chain unless it says otherwise.
UniProt Q14966: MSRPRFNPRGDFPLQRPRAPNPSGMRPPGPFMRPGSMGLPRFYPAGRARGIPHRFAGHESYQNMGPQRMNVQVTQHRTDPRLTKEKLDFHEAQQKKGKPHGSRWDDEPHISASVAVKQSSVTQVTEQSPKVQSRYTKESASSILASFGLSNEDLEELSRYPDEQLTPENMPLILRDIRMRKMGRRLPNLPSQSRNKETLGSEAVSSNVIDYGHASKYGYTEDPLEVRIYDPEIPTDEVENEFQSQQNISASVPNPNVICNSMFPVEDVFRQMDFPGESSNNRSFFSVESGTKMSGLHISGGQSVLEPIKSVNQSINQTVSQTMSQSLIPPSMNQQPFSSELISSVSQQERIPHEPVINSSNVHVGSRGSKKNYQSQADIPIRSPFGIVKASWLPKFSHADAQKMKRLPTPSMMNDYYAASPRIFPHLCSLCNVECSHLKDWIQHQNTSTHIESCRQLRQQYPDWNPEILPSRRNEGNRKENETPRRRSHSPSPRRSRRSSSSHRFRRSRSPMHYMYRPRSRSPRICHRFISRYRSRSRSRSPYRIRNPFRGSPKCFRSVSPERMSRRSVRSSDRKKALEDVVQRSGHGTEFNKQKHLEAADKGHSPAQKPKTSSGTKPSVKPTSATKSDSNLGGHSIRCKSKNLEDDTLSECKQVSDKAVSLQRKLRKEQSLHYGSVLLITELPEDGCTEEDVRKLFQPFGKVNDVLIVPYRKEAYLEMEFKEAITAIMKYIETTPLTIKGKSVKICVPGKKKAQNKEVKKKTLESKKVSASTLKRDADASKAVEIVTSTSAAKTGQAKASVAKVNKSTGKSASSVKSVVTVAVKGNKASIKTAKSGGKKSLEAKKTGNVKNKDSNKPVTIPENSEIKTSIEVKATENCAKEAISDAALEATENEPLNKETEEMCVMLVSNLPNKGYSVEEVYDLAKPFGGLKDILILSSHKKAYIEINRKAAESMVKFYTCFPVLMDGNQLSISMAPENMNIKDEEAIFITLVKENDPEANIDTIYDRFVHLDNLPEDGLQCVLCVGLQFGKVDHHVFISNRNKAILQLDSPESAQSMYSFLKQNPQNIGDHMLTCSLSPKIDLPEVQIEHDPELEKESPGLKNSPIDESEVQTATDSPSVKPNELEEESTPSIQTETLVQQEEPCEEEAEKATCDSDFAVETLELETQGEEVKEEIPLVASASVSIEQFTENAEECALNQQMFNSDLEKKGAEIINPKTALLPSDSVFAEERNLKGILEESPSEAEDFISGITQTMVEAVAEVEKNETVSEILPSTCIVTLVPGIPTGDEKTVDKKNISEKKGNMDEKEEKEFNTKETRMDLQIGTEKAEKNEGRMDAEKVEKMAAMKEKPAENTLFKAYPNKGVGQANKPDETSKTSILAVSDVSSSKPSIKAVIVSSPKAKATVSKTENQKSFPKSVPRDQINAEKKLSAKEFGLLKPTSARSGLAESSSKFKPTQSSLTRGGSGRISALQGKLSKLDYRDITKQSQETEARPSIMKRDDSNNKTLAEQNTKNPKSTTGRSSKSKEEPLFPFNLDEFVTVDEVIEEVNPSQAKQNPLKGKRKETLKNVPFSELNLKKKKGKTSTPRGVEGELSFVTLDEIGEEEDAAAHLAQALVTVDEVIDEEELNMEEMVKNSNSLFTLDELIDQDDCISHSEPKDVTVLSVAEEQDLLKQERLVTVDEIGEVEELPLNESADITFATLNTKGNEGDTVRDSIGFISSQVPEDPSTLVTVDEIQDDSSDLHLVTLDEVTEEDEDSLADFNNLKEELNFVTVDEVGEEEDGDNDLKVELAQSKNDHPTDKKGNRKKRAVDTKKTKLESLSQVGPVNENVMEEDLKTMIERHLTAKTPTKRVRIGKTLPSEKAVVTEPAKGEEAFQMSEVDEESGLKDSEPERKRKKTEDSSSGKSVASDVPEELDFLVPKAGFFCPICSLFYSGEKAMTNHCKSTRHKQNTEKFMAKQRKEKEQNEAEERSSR
UniProt Q15003, whole entry, looked up: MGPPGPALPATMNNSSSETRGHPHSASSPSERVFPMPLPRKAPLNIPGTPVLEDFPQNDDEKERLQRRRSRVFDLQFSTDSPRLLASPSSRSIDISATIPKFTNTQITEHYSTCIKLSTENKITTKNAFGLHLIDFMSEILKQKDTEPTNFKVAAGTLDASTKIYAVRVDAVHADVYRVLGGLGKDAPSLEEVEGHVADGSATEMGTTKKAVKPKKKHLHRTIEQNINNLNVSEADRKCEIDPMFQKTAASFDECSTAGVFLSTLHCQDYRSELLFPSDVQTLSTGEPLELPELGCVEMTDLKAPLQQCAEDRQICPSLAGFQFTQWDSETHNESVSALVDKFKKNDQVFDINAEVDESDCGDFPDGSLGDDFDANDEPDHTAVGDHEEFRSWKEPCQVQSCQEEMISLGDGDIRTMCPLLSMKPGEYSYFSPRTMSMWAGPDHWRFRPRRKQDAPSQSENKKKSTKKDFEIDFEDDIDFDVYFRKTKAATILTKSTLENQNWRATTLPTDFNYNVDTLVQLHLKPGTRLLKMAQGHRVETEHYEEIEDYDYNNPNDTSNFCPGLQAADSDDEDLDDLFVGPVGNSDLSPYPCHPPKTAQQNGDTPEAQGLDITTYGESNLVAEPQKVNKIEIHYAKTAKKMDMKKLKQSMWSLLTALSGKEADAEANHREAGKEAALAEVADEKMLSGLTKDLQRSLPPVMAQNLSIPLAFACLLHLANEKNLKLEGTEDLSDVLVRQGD
UniProt Q14574: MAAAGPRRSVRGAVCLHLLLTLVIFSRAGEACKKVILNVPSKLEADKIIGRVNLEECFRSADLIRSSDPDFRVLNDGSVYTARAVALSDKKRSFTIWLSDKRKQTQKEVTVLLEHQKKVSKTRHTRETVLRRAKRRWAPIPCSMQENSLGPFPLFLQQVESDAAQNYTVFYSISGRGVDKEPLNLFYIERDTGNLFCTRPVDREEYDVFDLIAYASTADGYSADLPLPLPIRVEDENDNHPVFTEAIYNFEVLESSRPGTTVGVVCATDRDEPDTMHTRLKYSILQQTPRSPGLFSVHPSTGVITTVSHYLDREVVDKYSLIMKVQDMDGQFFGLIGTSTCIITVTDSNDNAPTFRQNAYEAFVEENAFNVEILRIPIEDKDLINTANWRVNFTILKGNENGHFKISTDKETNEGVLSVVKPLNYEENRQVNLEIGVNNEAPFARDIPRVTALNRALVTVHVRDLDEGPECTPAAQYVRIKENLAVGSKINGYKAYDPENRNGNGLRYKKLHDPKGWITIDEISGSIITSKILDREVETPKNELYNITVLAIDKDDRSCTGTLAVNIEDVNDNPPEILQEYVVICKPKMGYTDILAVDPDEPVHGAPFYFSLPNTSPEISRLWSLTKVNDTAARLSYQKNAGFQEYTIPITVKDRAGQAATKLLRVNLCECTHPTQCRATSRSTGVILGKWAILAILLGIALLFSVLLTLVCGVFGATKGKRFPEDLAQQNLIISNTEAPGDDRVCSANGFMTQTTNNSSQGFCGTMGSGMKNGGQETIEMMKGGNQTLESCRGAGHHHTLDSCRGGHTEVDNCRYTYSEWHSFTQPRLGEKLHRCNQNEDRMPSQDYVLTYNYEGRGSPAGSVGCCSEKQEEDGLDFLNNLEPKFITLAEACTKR
UniProt Q14166: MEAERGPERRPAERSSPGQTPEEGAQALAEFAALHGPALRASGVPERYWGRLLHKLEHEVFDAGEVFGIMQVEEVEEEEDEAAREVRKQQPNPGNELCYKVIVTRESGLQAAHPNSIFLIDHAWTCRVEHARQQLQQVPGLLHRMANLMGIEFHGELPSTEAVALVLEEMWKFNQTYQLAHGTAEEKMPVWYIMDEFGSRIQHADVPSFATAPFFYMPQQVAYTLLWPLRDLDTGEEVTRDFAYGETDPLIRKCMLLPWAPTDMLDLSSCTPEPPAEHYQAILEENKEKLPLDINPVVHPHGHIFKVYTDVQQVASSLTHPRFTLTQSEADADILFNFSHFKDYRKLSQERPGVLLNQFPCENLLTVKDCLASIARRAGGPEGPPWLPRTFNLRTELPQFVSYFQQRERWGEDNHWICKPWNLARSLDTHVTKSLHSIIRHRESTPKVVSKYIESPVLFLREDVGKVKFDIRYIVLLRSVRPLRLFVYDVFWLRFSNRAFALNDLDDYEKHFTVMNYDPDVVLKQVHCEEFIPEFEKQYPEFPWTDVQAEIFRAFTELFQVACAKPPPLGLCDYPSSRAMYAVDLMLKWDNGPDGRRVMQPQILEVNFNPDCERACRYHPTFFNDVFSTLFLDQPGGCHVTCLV
UniProt Q14CS0: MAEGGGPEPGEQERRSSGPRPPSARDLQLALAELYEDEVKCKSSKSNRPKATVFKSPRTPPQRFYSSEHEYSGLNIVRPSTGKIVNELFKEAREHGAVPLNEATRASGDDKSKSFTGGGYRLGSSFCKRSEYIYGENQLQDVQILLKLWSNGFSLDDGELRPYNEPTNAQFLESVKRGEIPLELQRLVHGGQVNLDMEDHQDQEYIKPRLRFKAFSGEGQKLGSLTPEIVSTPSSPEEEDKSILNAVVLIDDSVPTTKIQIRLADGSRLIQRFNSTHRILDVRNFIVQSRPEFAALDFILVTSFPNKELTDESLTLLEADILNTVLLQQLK
UniProt Q13541: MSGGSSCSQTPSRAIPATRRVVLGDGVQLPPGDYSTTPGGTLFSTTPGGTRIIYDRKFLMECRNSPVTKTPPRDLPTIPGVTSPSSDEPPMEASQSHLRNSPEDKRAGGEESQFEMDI
UniProt Q14498: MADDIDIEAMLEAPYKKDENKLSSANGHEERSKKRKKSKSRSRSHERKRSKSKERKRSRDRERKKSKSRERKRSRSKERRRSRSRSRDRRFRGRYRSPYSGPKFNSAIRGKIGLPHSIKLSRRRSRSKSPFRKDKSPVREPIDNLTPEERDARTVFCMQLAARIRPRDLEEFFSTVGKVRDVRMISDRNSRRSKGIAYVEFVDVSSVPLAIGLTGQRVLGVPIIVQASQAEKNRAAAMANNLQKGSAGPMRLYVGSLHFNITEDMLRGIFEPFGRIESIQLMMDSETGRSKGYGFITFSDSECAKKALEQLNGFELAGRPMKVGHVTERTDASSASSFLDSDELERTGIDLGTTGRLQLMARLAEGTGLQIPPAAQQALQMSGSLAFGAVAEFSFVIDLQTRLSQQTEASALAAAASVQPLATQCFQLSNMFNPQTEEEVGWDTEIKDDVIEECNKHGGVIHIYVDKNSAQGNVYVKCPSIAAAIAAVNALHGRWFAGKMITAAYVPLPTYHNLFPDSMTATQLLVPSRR
UniProt Q13555: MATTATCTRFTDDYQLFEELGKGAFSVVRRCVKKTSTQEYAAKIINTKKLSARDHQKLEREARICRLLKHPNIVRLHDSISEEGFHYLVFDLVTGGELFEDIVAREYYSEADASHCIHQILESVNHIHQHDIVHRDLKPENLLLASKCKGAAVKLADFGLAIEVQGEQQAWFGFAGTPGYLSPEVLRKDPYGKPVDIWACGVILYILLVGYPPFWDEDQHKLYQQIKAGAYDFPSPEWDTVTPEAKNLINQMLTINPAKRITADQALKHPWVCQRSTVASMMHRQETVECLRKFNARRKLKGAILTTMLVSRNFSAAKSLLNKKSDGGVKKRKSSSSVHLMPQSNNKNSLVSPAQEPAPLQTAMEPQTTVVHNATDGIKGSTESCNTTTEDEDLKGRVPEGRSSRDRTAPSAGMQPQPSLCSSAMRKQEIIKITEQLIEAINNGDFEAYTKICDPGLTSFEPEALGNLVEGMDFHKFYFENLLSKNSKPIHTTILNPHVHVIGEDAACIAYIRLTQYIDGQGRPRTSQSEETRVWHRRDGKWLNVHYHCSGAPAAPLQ

What follows are targets tested with COC(=O)C#Cc1ccccc1 [methyl 3-phenylpropiolate] (assay: log2 ratio of iodoacetamide-alkyne labeling of the cysteine site, DMSO over compound (competition); higher = stronger covalent engagement of the cysteine by the compound, active = 1 or more). Settings: 500 µM; treatment time 1 h; system: HEK293T cell lysate.
Summary of the method: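 Reporter intensities give each cysteine's log2 competition ratio as the mean of control channels over the mean of compound channels. The samples were HEK293T lysate (2 mg/mL) given vehicle or electrophile (500 µM, 1 h, ambient temperature), then iodoacetamide alkyne (1 h), followed by click coupling to sCIP-TMT reagents, pooling, trypsin digestion overnight at 37 °C, streptavidin enrichment, acid elution, Orbitrap Eclipse LC-MS/MS with FAIMS and FragPipe quantification. Duplicate channels and three replicates were run, and cysteines quantified in only one replicate were discarded.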

log2 ratio of iodoacetamide-alkyne labeling, inactive:
CKAP5 C1203 (UniProt Q14008) 0.44
ZNF638 C1930 (UniProt Q14966) -0.212
NCAPH C255 (UniProt Q15003) -0.0399
CKAP5 C1019 (UniProt Q14008) 0.17
UniProt Q14574_C804 0.812
FLNC C1448 (UniProt Q14315) 0.432
TTLL12 C612 (UniProt Q14166) 0.0779
EIF3A C478 (UniProt Q14152) 0.28
UBXN2B C41 (UniProt Q14CS0) 0.407
SPTAN1 C1314 (UniProt Q13813) 0.12
KPNB1 C455 (UniProt Q14974) 0.582
EIF4EBP1 C7 (UniProt Q13541) 0.716
RBM39 C478 (UniProt Q14498) 0.467
CAMK2G C453 (UniProt Q13555) -0.122
ZMYM3 C1106 (UniProt Q14202) 0.144

2 records drawn at random from those above, as already listed:
log2 ratio of iodoacetamide-alkyne labeling, inactive:
RBM39 C478 (UniProt Q14498) 0.467
ZMYM3 C1106 (UniProt Q14202) 0.144
